# Cleaved PARP after 72 h of treatment

Data from the primary screen of doi:10.1371/journal.pone.0140310, rounded.

Drugs:
OSI-906 (2000 nM): C[C@]1(O)C[C@@H](c2nc(-c3ccc4ccc(-c5ccccc5)nc4c3)c3c(N)nccn32)C1
NVP-BEZ235 (20 nM): Cn1c(=O)n(-c2ccc(C(C)(C)C#N)cc2)c2c3cc(-c4cnc5ccccc5c4)ccc3ncc21
FK866 (50 nM): O=C(/C=C/c1cccnc1)NCCCCC1CCN(C(=O)c2ccccc2)CC1
cediranib (2000 nM): COc1cc2c(Oc3ccc4[nH]c(C)cc4c3F)ncnc2cc1OCCCN1CCCC1
U73122 (2000 nM): COc1ccc2c(c1)CCC1C2CCC2(C)C(NCCCCCCN3C(=O)C=CC3=O)CCC12 (centres undefined)
bortezomib (5 nM): CC(C)C[C@H](NC(=O)[C@H](Cc1ccccc1)NC(=O)c1cnccn1)B(O)O
stibogluconate (10000 nM): O=C(O)[C@@H]1[O][Sb](=[O])([O][Sb]2(=[O])[O][C@H]([C@H](O)CO)[C@H](O)[C@H](C(=O)O)[O]2)[O][C@H]([C@H](O)CO)[C@@H]1O (some centres undefined)
TCS401 (8330 nM): O=C(O)C(=O)Nc1sc2c(c1C(=O)O)CCNC2
tipifarnib (50 nM): Cn1cncc1[C@@](N)(c1ccc(Cl)cc1)c1ccc2c(c1)c(-c1cccc(Cl)c1)cc(=O)n2C

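The test systems are human melanoma cell lines, treated with two drugs together for 72 h and then stained and imaged. Each value is the cleaved-PARP-positive fraction of nuclei relative to DMSO-treated wells, in %, so that 100 equals the control and higher values mean more apoptosis. Every drug was used at one fixed concentration, the higher of two screened. These are primary screening values without error estimates. The marker varies much from line to line, for technical or biological reasons.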 This is part of the screen, not chosen by result. A dash means that no value is listed here.

| Pair | UACC-257 | G-361 | MZ2-MEL | MEL-HO | C32 | MeWo | WM451Lu | SK-MEL-2 | LOX IMVI | RVH-421 | IPC-298 |
|---|---|---|---|---|---|---|---|---|---|---|---|
| OSI-906 and stibogluconate | 25.7 | 47.7 | 85.1 | 146 | 69.0 | 80.4 | 170 | 91.8 | 124 | 147 | 47.3 |
| stibogluconate and tipifarnib | 165 | 150 | - | 65.0 | 194 | 85.9 | 406 | 399 | 71.2 | 101 | 78.2 |
| cediranib and OSI-906 | 35.1 | 63.1 | 78.1 | 74.5 | 112 | 78.7 | 103 | 132 | 229 | 121 | 41.7 |
| FK866 and bortezomib | 44.4 | 14800 | 2000 | 131 | 1150 | 5010 | 742 | 3180 | 431 | 1390 | 5100 |
| bortezomib and stibogluconate | 93.7 | 10800 | 22600 | 927 | 670 | 4120 | 2410 | 240 | 276 | 902 | 12800 |
| tipifarnib and U73122 | 72.7 | 43.3 | 27.7 | 96.2 | 121 | 132 | 63.2 | 142 | 93.2 | 200 | 49.6 |
| TCS401 and stibogluconate | 25.0 | 226 | 133 | 138 | 68.1 | 137 | 43.3 | 64.1 | 111 | 29.5 | 228 |
| FK866 and stibogluconate | 33.9 | 7630 | 615 | 175 | 122 | 87.6 | 139 | 4900 | 97.0 | 644 | 658 |
| FK866 and cediranib | 93.1 | 7020 | 346 | 138 | 162 | 108 | 43.5 | 1580 | 90.7 | 222 | 371 |
| TCS401 and NVP-BEZ235 | 28.8 | 85.2 | 50.9 | 153 | 85.9 | 37.6 | 244 | 67.8 | 108 | 155 | 91.8 |
| FK866 and NVP-BEZ235 | 80.4 | 3880 | 772 | 326 | 457 | 145 | 50.4 | 1320 | 79.2 | 218 | 1160 |
| OSI-906 and tipifarnib | 141 | 142 | 131 | 80.8 | 92.7 | 105 | 92.1 | 188 | 159 | 58.8 | 90.7 |
| U73122 and TCS401 | 78.3 | 117 | 77.3 | 54.0 | 497 | 89.8 | 171 | 107 | 110 | 210 | 201 |
| tipifarnib and NVP-BEZ235 | 75.0 | 129 | 125 | 108 | 238 | 112 | 171 | 266 | 246 | 71.1 | 96.5 |
| bortezomib and cediranib | 73.3 | 12600 | 26500 | 266 | 2380 | 3440 | 2720 | 130 | 1000 | 434 | 828 |
| U73122 and OSI-906 | 65.2 | 60.2 | 154 | 202 | 112 | 76.5 | 291 | 36.9 | 183 | 308 | 84.4 |
| cediranib and NVP-BEZ235 | 104 | 80.0 | 88.6 | 91.4 | 162 | 61.8 | 70.2 | 190 | 117 | 110 | 157 |
| OSI-906 and TCS401 | 35.1 | 191 | 186 | 99.4 | 86.2 | 28.5 | 82.2 | 52.0 | 165 | 202 | 50.3 |
| TCS401 and cediranib | 16.1 | 46.0 | 68.8 | 93.0 | 94.5 | 55.2 | 106 | 112 | 165 | 88.3 | 17.4 |
| U73122 and stibogluconate | 99.8 | 135 | 101 | 73.4 | 102 | 118 | 135 | 137 | 78.8 | 92.8 | 37.0 |
| U73122 and NVP-BEZ235 | 30.4 | 128 | 44.9 | 95.4 | 238 | 66.7 | 139 | 96.7 | 111 | 79.8 | 82.1 |
| FK866 and tipifarnib | 75.8 | 8000 | 848 | 530 | 24.2 | 96.8 | 310 | 2640 | 126 | 309 | 940 |
| NVP-BEZ235 and OSI-906 | 94.0 | 271 | 35.8 | 113 | 354 | 81.4 | 112 | 378 | 97.2 | 99.1 | 138 |
| OSI-906 and FK866 | 32.4 | 1510 | 792 | 149 | 88.2 | 135 | 88.3 | 2580 | 65.8 | 366 | 300 |
| TCS401 and tipifarnib | 12.3 | 47.5 | 168 | 140 | 106 | 79.3 | 129 | 256 | 84.7 | 95.9 | 144 |
| U73122 and cediranib | 74.3 | 107 | 103 | 43.8 | 268 | 137 | 46.5 | 83.4 | 171 | 132 | 152 |
| FK866 and TCS401 | 100 | 6190 | 220 | 156 | 74.7 | 69.7 | 196 | 186 | 126 | 230 | 253 |
| tipifarnib and bortezomib | 44.9 | 10500 | - | 138 | 1200 | 2570 | 661 | - | 594 | 317 | 5600 |
| tipifarnib and cediranib | 171 | 129 | 56.9 | 148 | 144 | 93.5 | 51.3 | 83.2 | 110 | 83.1 | 70.6 |
| U73122 and FK866 | 91.3 | 4550 | 3590 | 438 | 117 | 83.3 | 231 | 2300 | 55.6 | 132 | 341 |
| bortezomib and NVP-BEZ235 | 168 | 7720 | 11500 | 121 | 1000 | 978 | 258 | 364 | 82.9 | 841 | 815 |
| OSI-906 and bortezomib | 50.1 | 7070 | 26000 | 146 | 1350 | 2760 | 748 | 137 | 158 | 384 | 3780 |
| TCS401 and bortezomib | 37.8 | 8820 | 1130 | 75.9 | 234 | 3010 | 2030 | 147 | 172 | 399 | 80.4 |